No constants are given. Whether binding was seen depends on the method and setting. Sequences can lack the tags named with a protein.
Molecular target: human myeloid-derived growth factor (bacteria-derived, 6xHis-tag removed) (human) (UniProt Q969H8)
Experiment: NMR 15N relaxation (rotational correlation time from T1 and T2); 13C, 15N hMYDGF 508 µM in PBS pH 6, 298 K; same sample as for structure determination; τc 9.4 ns from average T1 and T2 of amides in secondary structure; both purified

binding: no binding (tested: 508 µM)
B1: human myeloid-derived growth factor (bacteria-derived, 6xHis-tag removed) (protein, UniProt Q969H8 32-173)
chain: GSKGTVSEPTTVAFDVRPGGVVHSFSHNVGPGDKYTCMFTYASQGGTNEQWQMSLGTSEDHQHFTCTIWRPQGKSYLYFTQFKAEVRGAEIEYAMAYSKAAFERESDVPLKTEEFEVTKTAVAHRPGAFKAELSKLVIVAKASRTEL
modifications: disulfide bond C63-C92; uniformly 13C, 15N labelled
